# Test results taken from the supplement of paper PMC3334620.
# Whole data set: some 33,000 sequences, median “E-score (-0.5 to 0.5)” near -0.016, cut for the highest 2% near 0.3. The list shows a part of the results.
# Target: T1, Yer184c (UniProt P39961)
# T1 sequence: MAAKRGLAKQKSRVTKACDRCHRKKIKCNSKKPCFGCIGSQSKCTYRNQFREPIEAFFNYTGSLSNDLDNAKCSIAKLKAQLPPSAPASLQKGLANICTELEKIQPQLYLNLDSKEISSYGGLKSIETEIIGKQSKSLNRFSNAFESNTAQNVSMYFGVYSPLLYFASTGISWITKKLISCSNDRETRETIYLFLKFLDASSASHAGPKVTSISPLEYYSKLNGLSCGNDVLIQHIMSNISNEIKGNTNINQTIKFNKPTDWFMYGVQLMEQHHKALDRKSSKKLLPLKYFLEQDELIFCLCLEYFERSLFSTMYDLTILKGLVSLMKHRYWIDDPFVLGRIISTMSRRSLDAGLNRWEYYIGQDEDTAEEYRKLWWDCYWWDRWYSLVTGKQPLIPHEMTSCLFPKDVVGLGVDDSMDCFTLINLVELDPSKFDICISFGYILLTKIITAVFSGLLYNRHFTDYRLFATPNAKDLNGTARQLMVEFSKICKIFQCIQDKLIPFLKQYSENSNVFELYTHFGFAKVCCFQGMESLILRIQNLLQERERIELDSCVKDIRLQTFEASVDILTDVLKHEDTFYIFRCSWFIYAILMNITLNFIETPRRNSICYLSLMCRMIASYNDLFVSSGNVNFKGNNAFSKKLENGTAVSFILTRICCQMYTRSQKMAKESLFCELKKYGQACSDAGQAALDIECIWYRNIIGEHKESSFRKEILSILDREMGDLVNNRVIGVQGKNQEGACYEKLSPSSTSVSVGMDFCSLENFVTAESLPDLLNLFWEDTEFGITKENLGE
# Experiment: PBM E-score (8-mer binding enrichment) (E-score (-0.5 to 0.5)); higher = stronger / more preferred TF binding
# Settings: protein concentration: 100 nM; construct: GST-full length
# Protocol: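 Universal 'all 10-mer' protein binding microarrays (Agilent AMADID 015681) probed with GST-tagged S. cerevisiae TFs (full-length or DBD) made by in vitro transcription/translation (PURExpress), about 100-200 nM. Bound TF was detected with fluorescent anti-GST. Each ungapped 8-mer (which stands for itself and its reverse complement) is scored by the PBM enrichment score (E-score), a modified Wilcoxon-Mann-Whitney statistic from -0.5 to +0.5, computed with the Universal PBM Analysis Suite. Scale: above 0.35 generally sequence-specific binding.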
row,Sequence,PBM E-score
1,CCCTAGAC,-0.189
2,AGTCCCTG,-0.37
3,AGTTTTAA,0.159
4,AGGCTACG,-0.268
5,ACCGAACG,0.235
6,GCGCGAAA,0.222
7,GTAAAAAC,0.0726
8,CCTAAACG,0.079
9,GCTCCCTA,-0.376
10,GCTCGGAA,0.334
11,ACACTCTG,-0.101
12,CCGCCACC,-0.219
13,ACTCTGCG,0.013
14,ATAGCGCG,0.0679
15,CTAATCCA,-0.0737
16,GAACTATC,-0.0632
17,CAGAACCG,0.0238
18,TAGCCCAA,-0.184
19,GTGCACAC,-0.194
20,CAACAAAC,0.141
21,AGACTCGA,-0.0489
22,ATTTGGCG,0.00852
23,GGTACCAC,-0.0264
24,GCATAAGA,0.124
25,CTCGGCTA,0.352

row,Sequence,PBM E-score
1,CTCTGGAC,-0.0855
2,ATAGTACC,0.0487
3,ATTGCCAG,-0.0205
4,AATACCAC,-0.128
5,AATTTCGG,0.284
6,ACTGTCCT,0.00102
7,AAATTTTG,0.115
8,AGCACTGC,-0.231
9,AAGTCAGC,0.0853
10,GCTTCTCC,-0.163
11,CTGGTACC,-0.163
12,TTCGCCAA,-0.104
13,ACAGTGAC,0.0379
14,CATCGGCG,0.123
15,ATGCGGAC,0.0835
16,CGTCAATA,0.0212
17,AACTATCA,0.173
18,CTGCGCGC,0.21
19,GTATTACA,0.0534
20,CGGTGCCA,-0.0521
21,AAAGGTGG,-0.129
22,ACGGCCTA,0.0524
23,AGATGGCA,0.0936
24,ACTCAGAT,0.0283
25,ACGATTAA,0.0458

row,Sequence,PBM E-score
1,ACCTGAGC,-0.164
2,TCCGCGCA,0.171
3,AATTACCG,0.245
4,AACATTCG,0.00818
5,GTTCAGAA,0.102
6,AACAAGAA,0.257
7,AGTGGATG,-0.0688
8,ACAGACCC,0.0241
9,TACCTGAA,0.0773
10,AAAGCCCG,0.0436
11,GTTTTGTA,0.234
12,GACGCGAC,-0.125
13,CTCTTGAC,-0.00283
14,CTCCCTTC,-0.385
15,AACGGGTC,-0.104
16,AGCAAGAT,0.0999
17,AGCGGTCA,-0.0407
18,TCTATTCA,0.0659
19,GGCTGACA,0.121
20,CATTCGGC,0.269
21,ACGAGAGG,-0.277
22,TACTTCTA,-0.0618
23,AATACAGA,0.0675
24,CGTACATA,0.13
25,ACCCGACT,-0.0291

# Exported as tab-separated lines: part of the list above.
row	Sequence	PBM E-score
2	AGTCCCTG	-0.37
3	AGTTTTAA	0.159
4	AGGCTACG	-0.268
5	ACCGAACG	0.235
6	GCGCGAAA	0.222
7	GTAAAAAC	0.0726
9	GCTCCCTA	-0.376
11	ACACTCTG	-0.101
12	CCGCCACC	-0.219
13	ACTCTGCG	0.013
14	ATAGCGCG	0.0679
20	CAACAAAC	0.141
23	GGTACCAC	-0.0264
24	GCATAAGA	0.124
3	ATTGCCAG	-0.0205
4	AATACCAC	-0.128
7	AAATTTTG	0.115
9	AAGTCAGC	0.0853
11	CTGGTACC	-0.163
15	ATGCGGAC	0.0835
16	CGTCAATA	0.0212
17	AACTATCA	0.173
18	CTGCGCGC	0.21
20	CGGTGCCA	-0.0521
21	AAAGGTGG	-0.129
22	ACGGCCTA	0.0524
23	AGATGGCA	0.0936
3	AATTACCG	0.245
5	GTTCAGAA	0.102
9	TACCTGAA	0.0773
10	AAAGCCCG	0.0436
11	GTTTTGTA	0.234
13	CTCTTGAC	-0.00283
15	AACGGGTC	-0.104
16	AGCAAGAT	0.0999
18	TCTATTCA	0.0659
21	ACGAGAGG	-0.277
23	AATACAGA	0.0675
24	CGTACATA	0.13
25	ACCCGACT	-0.0291

# The results go on:

row,Sequence,PBM E-score
1,GCGAATCC,0.045
2,AAGCCGAG,0.286
3,ACGAAGCG,-0.198
4,CAGGTCCA,-0.127
5,CTTGCGCC,-0.0711
6,CACCACTG,-0.243
7,CCGACTAC,0.0891
8,ATCGACGA,0.0279
9,AGCGCCCT,-0.0757
10,AAGAGGCC,-0.172
11,GTTCGTGA,-0.0517
12,CAAAGTGG,-0.316
13,AGTACGTA,0.0723
14,GGTAGACC,-0.136
15,GTGACCGA,0.0994
16,GACCGACC,0.0582
17,GACCGGAC,0.245
18,CTCTAATC,-0.0252
19,CACGAGTC,-0.172
20,ACCTTCGC,0.0149
21,CAGCGGAG,-0.0658
22,CAACAGCA,0.0148
23,CAAACGAG,0.0721
24,AATCATAG,0.0958
25,ATATTGAA,0.181

row,Sequence,PBM E-score
1,CTAGTGAA,0.026
2,ATGTCTTC,-0.108
3,CCAGGGAC,-0.317
4,ACCCAAAC,0.17
5,ATCCCCAC,-0.218
6,ATTCTTTG,0.0711
7,ATTAAGGA,0.0561
8,GCCATTCA,0.0596
9,AGCTGCGA,-0.107
10,GCTGATGA,-0.015
11,ACCTCGCA,-0.114
12,AACAGCAA,0.0855
13,CGCCAAGC,-0.184
14,ACACACGC,-0.00408
15,AACCGTGA,0.0722
16,CTCAGAAA,0.0154
17,CTTACCCC,-0.258
18,ACTTGTTG,-0.279
19,AGTACGCA,-0.208
20,AAGAGACG,0.172
21,ATGTACCG,0.0916
22,AAGGAGTG,-0.146
23,ACCAATAT,0.0712
24,CAGACTAA,0.101
25,CGGCTCTA,0.267

row,Sequence,PBM E-score
1,ACGCAATG,-0.176
2,CGGCCATA,0.0112
3,CGCCATAG,-0.127
4,ATAGCACC,-0.0386
5,AGGTCTTA,-0.0941
6,ATGTAAAG,0.0647
7,CAGCATAG,0.0287
8,CAGAGTCG,-0.195
9,GAGACCTC,-0.086
10,CACGGTGA,-0.0122
11,CTCGGCGC,0.357
12,GTACGTAC,-0.138
13,GTCATTCA,0.0449
14,GCAAAACA,0.0139
15,AATACTAT,0.0915
16,CGCGGGGA,0.125
17,ACCCGTAA,-0.0644
18,CCCTCGAC,-0.174
19,CGTCGGCC,0.233
20,ATGACAAG,-0.0717
21,GAGCCTTA,-0.125
22,GACTTGGC,-0.19
23,CAAGACCA,-0.0843
24,ATAGAATA,0.171
25,AAGGAGGC,-0.305

row,Sequence,PBM E-score
1,GTCTGCTA,0.136
2,CCCCCTCG,-0.289
3,ACTTCTGC,-0.0109
4,CATGACGC,-0.191
5,ATTATGGG,-0.174
6,AAGATATA,0.104
7,CTGCAACA,0.152
8,CCTGTGTA,-0.029
9,ATCTATCA,0.148
10,AGAGATAC,-0.0106
11,AGGGTGTC,-0.182
12,CAGGAGAG,-0.152
13,CCAAGAGG,-0.18
14,AGAGCAAA,-0.0476
15,GGCTACCC,-0.147
16,GGATCCGA,0.242
17,GACATGTC,-0.298
18,AAAAAACA,0.198
19,ACCCGGAC,0.055
20,ATTATCTA,0.183
21,GTTATGCA,-0.178
22,GAAGGCGA,-0.176
